Reference: US20250090996A1, “ACID GAS REMOVAL METHOD, ACID GAS ABSORBENT, AND ACID GAS REMOVAL APPARATUS” (KABUSHIKI KAISHA TOSHIBA, priority 2023, published 2025)
Some entries repeat one wording, which the source may state once for all of them.

Columns and labels:
[1] = Regeneration (carbon dioxide release) on heated molecular sieve 4A column; conditions: column 60° C. to 70° C., inert gas 50 ml/min
Experimental: (§1) When a compound (a-1) of General Formula (a) wherein R^1 and R^3 are 1-ethylpropyl groups and R^2 is C3 linear alkyl and water were blended at a mass ratio of 50:50, two phases of an organic phase (amine compound phase) as an upper phase and an aqueous phase as a lower phase were formed. […] The temperature in the column was changed in a range of 60° C. to 70° C., and an inert gas was caused to flow at 50 ml/min. […] Here, the amount of carbon dioxide saturated and absorbed is a value obtained by measuring the amount of inorganic carbon in the acid gas absorbent with an infrared gas concentration measuring apparatus. The amount of this compound dissolved was 18,000 mg/L at 25° C. and under atmospheric pressure. The amount of the compound dissolved was determined by sampling the lower phase of the two phases fractionated, measuring the total organic carbon concentration with a total organic carbon meter TOC-L (trade name) manufactured by Shimadzu Corporation, and converting it into the amount of amine dissolved from the chemical formula of the compound (a-1).

[2] = Carbon dioxide absorption by bubbling CO2:N2=1:9 gas into amine/water mixture; conditions: 20 g of mixture with water 50:50; CO2:N2=1:9 bubbled at 0.5 L/min; 25° C., atmospheric pressure
Experimental: Hereinafter, Examples of the embodiment will be described. In the following Examples, conditions before heating the acid gas absorbent were 25° C. and atmospheric pressure.
as §1

SMILES	regeneration of mixture passed through column [1]	carbon dioxide absorbed for 10 minutes from the start [2]	carbon dioxide absorbed for 100 minutes from the start [2]
CCC(CC)NCCCNC(CC)CC [compound (a-1)]	released carbon dioxide and was regenerated	12 nL/kg	48 nL/kg
CCC(CC)NCCCN(C)CCCNC(CC)CC [compound (b-1)]	released carbon dioxide and was regenerated	7 nL/kg	38 nL/kg
CC(C)CC(C)NCCCN(C)CCCNC(C)CC(C)C (centres unmarked) [compound (b-2)]	released carbon dioxide and was regenerated	7 nL/kg	36 nL/kg
CC(C)CC(C)NCCCNCCCNC(C)CC(C)C (centres unmarked) [compound (b-3)]	released carbon dioxide and was regenerated	11 nL/kg	56 nL/kg
CC(C)N(C)C(C)C [diisopropylmethylamine, reference compound]	–	3.6 nL/kg	20.3 nL/kg
